Results as given in patent publication US10722587B2, “Composition for intracellular delivery containing adenovirus protein VI-derived peptide and anticancer pharmaceutical composition containing same” (priority 2015, dated 2020).
Part of at least one peptide drawing is inferred or uncertain, most often the ends. Some entries repeat one wording, which the source may state once for all of them.

Columns and labels:
[1] = surface charge of peptides, Zeta-sizer; format: physicochemical
293A cell line [2] = assay: intracellular gene delivery (GFP) of Ad pDNA-PPCBA-peptide complexes; format: cell-based; conditions: peptide as complex with Ad pDNA-PPCTBA; 24 hours
293A cell line [3] = assay: intracellular gene delivery (GFP) of Ad pDNA-PAM-ABP-peptide complexes; format: cell-based; conditions: peptide as Ad pDNA-PAM-ABP-peptide complex; GFP after 4 days
[4] = system: A549 lung cancer cell line; assay: cellular uptake of FITC-pDNA by FACS, Ad pDNA-PAM-ABP-peptide complexes; format: cell-based, human; conditions: peptide as Ad pDNA-PAM-ABP-peptide complex, 30 minutes
Ad pDNA = assay: DNA condensation efficiency by PicoGreen staining; format: physicochemical; conditions: Ad pDNA-peptide complex (1 μg); PicoGreen fluorescence
membrane = membrane lytic activity, PI staining; format: cell-based; conditions: peptide 50 nM, 30 minutes, 37° C.; PI fluorescence
Hela cell line [5] = assay: virus production by Q-PCR, Ad pDNA/PAM-ABP/peptide complexes; format: cell-based, human; conditions: peptide as Ad pDNA/PAM-ABP/peptide complex; 4 days
Hela cell line [6] = assay: MTT assay, oncolytic capability and cytotoxicity; format: cell-based, human; conditions: peptide as Ad pDNA-(PAM-ABP)-peptide complex, 4 days
Method: In this example, to confirm the adenoviral proliferation capability and oncolytic capability of Ad pDNA-polymer-peptide complexes, a complex was manufactured using polymer PAM-ABP and d pDNA containing viral DNA of H-Rd19-k35/DCN/shcMet, which is a tumor-selective oncolytic adenovirus expressing adenovirus DNA such as decorin (DCN) and shcMet. A human uterine cancer cell line, Hela cell line, was inoculated into a 12-well plate, and after 24 hours, treated with naked Ad pDNA, Ad pDNA/PAM-ABP, Ad pDNA/PAM-ABP/peptide complexes in which 6 types of peptides such as mVI, mVI-TAT, mVI-TAT-A, mVI-G-TAT-A, mVI-A-TAT and mVI-G-A-TAT were conjugated with Ad pDNA/PAM-ABP, and controls such as VI-9R and a complex with a TAT peptide. In addition, to verify cytotoxicity, the cells were treated with PAM-ABP or a peptide alone. Four days after the treatment, the culture solution was collected, and the number of adenovirus particles was detected using Q-PCR, and to verify oncolytic capability, 2 mg/ml of 3-(4,5-dimethylthiazol-2-yl)-2,5-diphenyl-tetrazolium bromide (MTT; Sigma Aldrich) in PBS was added at 200 μL to each well of the supernatant-removed plate, and cultured at 37° C. for 4 hours. Afterward, the supernatant was removed, the precipitate was dissolved in 1.0 ml dimethyl sulfoxide, the absorbance was analyzed by reading the plate at 540 nm on a microplate reader, and a non-treated cell group was classified as a negative control.

A549 cell line = assay: virus production by Q-PCR, Ad pDNA-(PAM-ABP)-peptide complexes; format: cell-based, human; conditions: peptide as Ad pDNA-(PAM-ABP)-peptide complex; 4 days
[7] = system: various cell lines (A549, MCF, H460, and U434); assay: intracellular gene delivery (GFP) of adenovirus/peptide complexes; format: cell-based; conditions: peptide conjugated with Ad (dE1/GFP); 20 MOI; GFP after 48 hours
[8] = system: adenovirus plasmid DNA (Ad pDNA); assay: gel retardation assay, DNA condensation of Ad pDNA-polymer-VI-9R complex; format: physicochemical; conditions: Ad pDNA:VI-9R weight ratio 1:10; from DNA:polymer weight ratio 1:1

Row | Structure (SMILES) | surface charge as pH was reduced ([1]; pH 7.4 PBS versus pH 6.4 PBS) | GFP expression compared with unmodified VI-9R (293A cell line [2]) | gene delivery efficiency compared with Ad pDNA-PAM-ABP/TAT (positive control) (293A cell line [3]) | cellular uptake efficiency increase compared with Ad pDNA-PAM-ABP (control) [4] | DNA condensation (Ad pDNA) | membrane lysis (membrane) | virus production increase compared with Ad pDNA/PAM-ABP (control) (Hela cell line [5]) | oncolytic capability increase compared with control Ad pDNA/PAM-ABP (Hela cell line [6]) | virus production increase compared with control Ad pDNA/PAM-ABP (A549 cell line) | gene delivery efficiency compared with Ad/VI and Ad/VI-9R groups [7] | surface charge compared with the VI peptide ([1]; Zeta potential) | DNA condensation (loading of adenovirus DNA in polymer-peptide complex) [8] | surface charge (Zeta potential), printed as positive charge ([1]; pH 7.4, 10 μg/ml in PBS) | surface charge (Zeta potential), printed as negative charge ([1]; pH 7.4, 10 μg/ml in PBS, magnitude of a negative charge)
1 | CC[C@H](C)[C@H](NC(=O)CNC(=O)[C@H](CO)NC(=O)[C@H](Cc1c[nH]c2ccccc12)NC(=O)[C@H](CC(C)C)NC(=O)[C@H](CO)NC(=O)CNC(=O)[C@H](Cc1c[nH]c2ccccc12)NC(=O)[C@H](CO)NC(=O)[C@H](Cc1ccccc1)NC(=O)[C@H](C)N)C(=O)N[C@@H](CCCCN)C(=O)N[C@@H](CC(N)=O)C(=O)N[C@@H](Cc1ccccc1)C(=O)NCC(=O)N[C@@H](C)C(=O)N[C@@H](CC(C)C)C(=O)N[C@@H](C)C(=O)N[C@@H](CCC(=O)O)C(=O)N[C@@H](CCCNC(=N)N)C(=O)N[C@@H](CCCCN)C(=O)N[C@@H](CCCCN)C(=O)N[C@@H](CCCNC(=N)N)C(=O)N[C@@H](CCCNC(=N)N)C(=O)N[C@@H](CCC(N)=O)C(=O)N[C@@H](CCCNC(=N)N)C(=O)N[C@@H](CCCNC(=N)N)C(=O)N[C@@H](CCCNC(=N)N)C(=O)O [mVI-A-TAT] | increased | increased | considerably increased | 1.6 times | DNA condensation was induced | membrane lysis efficiency was considerably improved | ~29.5 times | 21.7% | ~1.03 times | considerably increased | – | – | – | –
2 | CC[C@H](C)[C@H](NC(=O)CNC(=O)[C@H](CO)NC(=O)[C@H](Cc1c[nH]c2ccccc12)NC(=O)[C@H](CC(C)C)NC(=O)[C@H](CO)NC(=O)CNC(=O)[C@H](Cc1c[nH]c2ccccc12)NC(=O)[C@H](CO)NC(=O)[C@H](Cc1ccccc1)NC(=O)[C@H](C)N)C(=O)N[C@@H](CCCCN)C(=O)N[C@@H](CC(N)=O)C(=O)N[C@@H](Cc1ccccc1)C(=O)NCC(=O)O [mVI] | – | increased | considerably increased | 2.6 times | DNA condensation was not induced | – | approximately 8.0 times | 22.5% | – | considerably increased | changed to positive | – | – | –
3 | CC[C@H](C)[C@H](NC(=O)CNC(=O)[C@H](CO)NC(=O)[C@H](Cc1c[nH]c2ccccc12)NC(=O)[C@H](CC(C)C)NC(=O)[C@H](CO)NC(=O)CNC(=O)[C@H](Cc1c[nH]c2ccccc12)NC(=O)[C@H](CO)NC(=O)[C@H](Cc1ccccc1)NC(=O)[C@H](C)N)C(=O)N[C@@H](CCCCN)C(=O)N[C@@H](CC(N)=O)C(=O)N[C@@H](Cc1ccccc1)C(=O)NCC(=O)N[C@@H](Cc1ccccc1)C(=O)N[C@@H](CC(C)C)C(=O)NCC(=O)N[C@@H](C)C(=O)N[C@@H](CC(C)C)C(=O)N[C@@H](C)C(=O)N[C@@H](CCC(=O)O)C(=O)N[C@@H](CCCNC(=N)N)C(=O)N[C@@H](CCCCN)C(=O)N[C@@H](CCCCN)C(=O)N[C@@H](CCCNC(=N)N)C(=O)N[C@@H](CCCNC(=N)N)C(=O)N[C@@H](CCC(N)=O)C(=O)N[C@@H](CCCNC(=N)N)C(=O)N[C@@H](CCCNC(=N)N)C(=O)N[C@@H](CCCNC(=N)N)C(=O)O [mVI-G-A-TAT] | – | increased | considerably increased | 2.1 times | DNA condensation was not induced | membrane lysis efficiency was considerably improved | ~25.6 times | 26.5% | ~10.7 times | considerably increased | – | – | – | –
4 | CC[C@H](C)[C@H](NC(=O)CNC(=O)[C@H](CO)NC(=O)[C@H](Cc1c[nH]c2ccccc12)NC(=O)[C@H](CC(C)C)NC(=O)[C@H](CO)NC(=O)CNC(=O)[C@H](Cc1c[nH]c2ccccc12)NC(=O)[C@@H](N)CO)C(=O)N[C@@H](CCCCN)C(=O)N[C@@H](CC(N)=O)C(=O)N[C@@H](Cc1ccccc1)C(=O)NCC(=O)N[C@@H](CCCNC(=N)N)C(=O)N[C@@H](CCCNC(=N)N)C(=O)N[C@@H](CCCNC(=N)N)C(=O)N[C@@H](CCCNC(=N)N)C(=O)N[C@@H](CCCNC(=N)N)C(=O)N[C@@H](CCCNC(=N)N)C(=O)N[C@@H](CCCNC(=N)N)C(=O)N[C@@H](CCCNC(=N)N)C(=O)N[C@@H](CCCNC(=N)N)C(=O)O [VI-9R] | – | – | – | 2.4 times | – | membrane lysis efficiency was considerably improved | – | – | – | – | – | DNA condensation sufficiently occurs | 4.87±0.42 mV | 16.6±0.41 mV
5 | CC[C@H](C)[C@H](NC(=O)CNC(=O)[C@H](CO)NC(=O)[C@H](Cc1c[nH]c2ccccc12)NC(=O)[C@H](CC(C)C)NC(=O)[C@H](CO)NC(=O)CNC(=O)[C@H](Cc1c[nH]c2ccccc12)NC(=O)[C@H](CO)NC(=O)[C@H](Cc1ccccc1)NC(=O)[C@H](C)N)C(=O)N[C@@H](CCCCN)C(=O)N[C@@H](CC(N)=O)C(=O)N[C@@H](Cc1ccccc1)C(=O)NCC(=O)N[C@@H](Cc1ccccc1)C(=O)N[C@@H](CC(C)C)C(=O)NCC(=O)N[C@@H](CCCNC(=N)N)C(=O)N[C@@H](CCCCN)C(=O)N[C@@H](CCCCN)C(=O)N[C@@H](CCCNC(=N)N)C(=O)N[C@@H](CCCNC(=N)N)C(=O)N[C@@H](CCC(N)=O)C(=O)N[C@@H](CCCNC(=N)N)C(=O)N[C@@H](CCCNC(=N)N)C(=O)N[C@@H](CCCNC(=N)N)C(=O)N[C@@H](C)C(=O)N[C@@H](CC(C)C)C(=O)N[C@@H](C)C(=O)N[C@@H](CCC(=O)O)C(=O)O [mVI-G-TAT-A] | – | increased | considerably increased | 2.1 times | DNA condensation was not induced | – | – | 7.1% | – | considerably increased | – | – | – | –
